Data as given in PubChem BioAssay AID652243 (Drosophila RNAi Screening Center, 2013)
The deposit covers about 24,000 reagents; shown is a random part of those that have a named target and a result. Of all reagents, 246 (1%) were called active. 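Plates not normalised; calls are printed but the firefly/Renilla ratio behind them is not deposited; fold cut for lowering reported inconsistently.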 Raw values vary from plate to plate and are shown uncorrected. Names joined by + are all predicted targets of the reagent. Not stated in the record: the amount of reagent.

Assay: 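Fly genes required for human androgen receptor driven transcription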 (primary screen)
Cells: Drosophila S2R+ cells
Reagent: long dsRNA against Drosophila genes
Duration: 72 h (48 h, then 24 h hormone)
Challenge: synthetic androgen R1881 at 10 nM for 24 h
Measurement: 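Per-well raw luminescence of the androgen-driven firefly reporter and of the Renilla control, two replicates each, without normalisation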
Reading the numbers: firefly reporter light: higher = more light from androgen-responsive reporter; Renilla control light: higher = more constitutive control signal (cell number, transfection)
Call rule: 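Hit when the log firefly-to-Renilla ratio dropped or increased by a fixed fold versus the mean of GFP or LacZ controls across duplicate plates; lowering cut given as 1.5 and as 3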
Calls: active = hit: reporter lowered or raised; inactive = no hit

| gene knocked down | DRSC id | firefly reporter light, replicate 1 | firefly reporter light, replicate 2 | Renilla control light, replicate 1 | Renilla control light, replicate 2 | activity call |
| --- | --- | --- | --- | --- | --- | --- |
| schuy (schumacher-levy) | DRSC10284 | 1.80e5 | 1.54e5 | 1.95e6 | 1.92e6 | inactive |
| schuy (schumacher-levy) | DRSC28184 | 4.19e5 | 5.03e5 | 1.25e6 | 8.48e5 | inactive |
| Cyt-b5 (Cytochrome b5) | DRSC07392 | 8.15e5 | 7.66e5 | 2.17e6 | 2.72e6 | inactive |
| CG9330 | DRSC11066 | 1.80e5 | 1.83e5 | 1.57e6 | 2.43e6 | inactive |
| CG9330 | DRSC29449 | 3.09e5 | 3.28e5 | 7.41e5 | 7.41e5 | inactive |
| BBS5 (Bardet-Biedl syndrome 5) | DRSC12168 | 1.04e5 | 1.50e5 | 1.41e6 | 1.02e6 | inactive |
| BBS5 (Bardet-Biedl syndrome 5) | DRSC27540 | 1.86e5 | 2.07e5 | 5.51e5 | 7.20e5 | inactive |
| BomBc2 (Bomanin Bicipital 2) | DRSC06502 | 56132 | 99778 | 8.68e5 | 8.68e5 | inactive |
| BomBc2 (Bomanin Bicipital 2) | DRSC29859 | 1.24e6 | 1.13e6 | 1.78e6 | 2.02e6 | inactive |
| His-Psi:CR31616 + His-Psi:CR31615 | DRSC03760 | 4.09e5 | 3.84e5 | 1.15e5 | 1.22e5 | inactive |
| CG9173 | DRSC08635 | 1.18e5 | 1.15e5 | 1.31e6 | 1.84e6 | inactive |
| CG42812 | DRSC15368 | 1.43e5 | 1.60e5 | 2.29e6 | 2.40e6 | inactive |
| CG9313 | DRSC04540 | 6.70e5 | 7.12e5 | 1.87e6 | 1.59e6 | inactive |
| CG9313 | DRSC27041 | 3.05e5 | 2.29e5 | 5.46e5 | 4.21e5 | inactive |
| Rpp30 (RNaseP protein p30) | DRSC00320 | 8.30e5 | 6.53e5 | 4.93e6 | 2.41e6 | inactive |
| CG32023 | DRSC08946 | 1.35e5 | 1.53e5 | 3.97e5 | 3.39e5 | inactive |
| TFAM (mitochondrial transcription factor A) | DRSC15552 | 33732 | 54491 | 4.39e5 | 4.44e5 | inactive |
| TFAM (mitochondrial transcription factor A) | DRSC26903 | 3.47e5 | 3.19e5 | 8.79e5 | 7.71e5 | inactive |
| CG15107 | DRSC23406 | 6.96e5 | 8.19e5 | 7.86e5 | 6.34e5 | inactive |
| Pex19 (Peroxin 19) | DRSC02839 | 7.76e5 | 6.69e5 | 2.19e6 | 1.45e6 | inactive |
| btsz (bitesize) | DRSC15320 | 1.30e5 | 1.08e5 | 1.89e6 | 2.09e6 | inactive |
| btsz (bitesize) | DRSC16231 | 86561 | 1.19e5 | 2.32e6 | 2.38e6 | inactive |
| btsz (bitesize) | DRSC23250 | 5.13e5 | 5.13e5 | 1.17e6 | 1.44e6 | inactive |
| btsz (bitesize) | DRSC28867 | 4.13e5 | 4.11e5 | 1.25e6 | 1.45e6 | inactive |
| ChT (Choline transporter) | DRSC16296 | 59608 | 51514 | 4.07e5 | 3.66e5 | inactive |
| sxc (super sex combs) | DRSC04911 | 2.65e5 | 2.99e5 | 2.34e6 | 1.92e6 | inactive |
| CG10841 | DRSC14271 | 22300 | 66231 | 3.02e5 | 3.18e5 | inactive |
| CG10841 | DRSC28142 | 6.42e5 | 6.87e5 | 1.03e6 | 1.22e6 | inactive |
| CG11110 | DRSC06037 | 99192 | 1.16e5 | 1.06e6 | 1.21e6 | inactive |
| CG11110 | DRSC27355 | 2.69e5 | 2.30e5 | 6.37e5 | 8.93e5 | inactive |
| Drs (Drosomycin) | DRSC08657 | 1.65e5 | 1.54e5 | 2.83e6 | 3.32e6 | inactive |
| Drs (Drosomycin) | DRSC27852 | 9.09e5 | 4.09e5 | 4.26e6 | 1.79e6 | inactive |
| IA-2 (IA-2 protein tyrosine phosphatase) | DRSC00304 | 5.93e5 | 8.19e5 | 2.37e6 | 2.74e6 | inactive |
| IA-2 (IA-2 protein tyrosine phosphatase) | DRSC00652 | 3.90e5 | 4.87e5 | 1.94e6 | 1.38e6 | active |
| IA-2 (IA-2 protein tyrosine phosphatase) | DRSC23335 | 5.81e5 | 5.54e5 | 1.47e6 | 1.48e6 | inactive |
| IA-2 (IA-2 protein tyrosine phosphatase) | DRSC24588 | 4.00e5 | 4.64e5 | 4.51e5 | 4.79e5 | inactive |
| IA-2 (IA-2 protein tyrosine phosphatase) | DRSC36830 | – | – | – | – | inactive |
| IA-2 (IA-2 protein tyrosine phosphatase) | DRSC36831 | – | – | – | – | inactive |
| CR41454 + CG33217 | DRSC38608 | 9.09e5 | 7.96e5 | 1.84e6 | 2.26e6 | inactive |
| CG8138 | DRSC16386 | 1.15e5 | 1.30e5 | 1.86e6 | 1.82e6 | inactive |
| EMRE (Essential MCU regulator) | DRSC06686 | 1.51e5 | 1.91e5 | 2.43e6 | 2.43e6 | inactive |
| RpS11 (Ribosomal protein S11) | DRSC07289 | 4.46e5 | 3.57e5 | 3.95e6 | 3.13e6 | inactive |
| RpS11 (Ribosomal protein S11) | DRSC22700 | 3.28e5 | 3.87e5 | 4.69e5 | 5.39e5 | inactive |
| CG12912 | DRSC25772 | 2.96e5 | 2.97e5 | 1.17e6 | 8.39e5 | inactive |
| CG11425 | DRSC11657 | 3.08e5 | 1.84e5 | 2.14e6 | 1.90e6 | inactive |
| CG11425 | DRSC28400 | 2.83e5 | 5.56e5 | 8.54e5 | 1.32e6 | inactive |
| ProtA (Protamine A) | DRSC03372 | 1.35e5 | 1.81e5 | 1.75e6 | 2.11e6 | inactive |
| Oatp30B (Organic anion transporting polypeptide 30B) | DRSC02727 | 6.87e5 | 3.90e5 | 2.93e6 | 2.47e6 | active |
| Mgat4a | DRSC09326 | 5.83e5 | 7.24e5 | 2.08e6 | 2.23e6 | inactive |
| Mgat4a | DRSC11070 | 73304 | 96716 | 8.24e5 | 1.26e6 | inactive |
| CG13405 | DRSC08310 | 1.03e5 | 1.13e5 | 1.51e6 | 1.60e6 | inactive |
| CG13405 | DRSC27289 | 6.26e5 | 6.10e5 | 7.27e5 | 8.62e5 | inactive |
| Mal-A1 (Maltase A1) | DRSC07461 | 3.49e5 | 3.31e5 | 1.91e6 | 1.74e6 | inactive |
| Mal-A1 (Maltase A1) | DRSC29096 | 5.32e5 | 3.71e5 | 1.47e6 | 1.51e6 | inactive |
| btn (buttonless) | DRSC26486 | 98918 | 80207 | 1.72e5 | 1.10e5 | inactive |
| Taf10 (TBP-associated factor 10) | DRSC30091 | 1.03e6 | 7.92e5 | 8.64e5 | 7.32e5 | inactive |
| CG5478 | DRSC15814 | 2.47e5 | 2.45e5 | 2.79e6 | 3.13e6 | inactive |
| or (orange) | DRSC04329 | 2.21e5 | 2.13e5 | 1.20e6 | 1.03e6 | inactive |
| or (orange) | DRSC29241 | 4.61e5 | 4.49e5 | 1.38e6 | 1.33e6 | inactive |

3 entries from above, reformatted.
{"gene knocked down": "CG15107", "DRSC id": "DRSC23406", "firefly reporter light, replicate 1": 6.96e5, "firefly reporter light, replicate 2": 8.19e5, "Renilla control light, replicate 1": 7.86e5, "Renilla control light, replicate 2": 6.34e5, "activity call": "inactive"}
{"gene knocked down": "Pex19 (Peroxin 19)", "DRSC id": "DRSC02839", "firefly reporter light, replicate 1": 7.76e5, "firefly reporter light, replicate 2": 6.69e5, "Renilla control light, replicate 1": 2.19e6, "Renilla control light, replicate 2": 1.45e6, "activity call": "inactive"}
{"gene knocked down": "btsz (bitesize)", "DRSC id": "DRSC15320", "firefly reporter light, replicate 1": 1.30e5, "firefly reporter light, replicate 2": 1.08e5, "Renilla control light, replicate 1": 1.89e6, "Renilla control light, replicate 2": 2.09e6, "activity call": "inactive"}
